# Test results published in PubChem BioAssay (EPA / NIEHS).
# The chains behind the UniProt entries cited, without tags or fusion partners. Where a name states a change or a piece, a line headed by the entry shows the natural chain unless it says otherwise.
# UniProt P11510: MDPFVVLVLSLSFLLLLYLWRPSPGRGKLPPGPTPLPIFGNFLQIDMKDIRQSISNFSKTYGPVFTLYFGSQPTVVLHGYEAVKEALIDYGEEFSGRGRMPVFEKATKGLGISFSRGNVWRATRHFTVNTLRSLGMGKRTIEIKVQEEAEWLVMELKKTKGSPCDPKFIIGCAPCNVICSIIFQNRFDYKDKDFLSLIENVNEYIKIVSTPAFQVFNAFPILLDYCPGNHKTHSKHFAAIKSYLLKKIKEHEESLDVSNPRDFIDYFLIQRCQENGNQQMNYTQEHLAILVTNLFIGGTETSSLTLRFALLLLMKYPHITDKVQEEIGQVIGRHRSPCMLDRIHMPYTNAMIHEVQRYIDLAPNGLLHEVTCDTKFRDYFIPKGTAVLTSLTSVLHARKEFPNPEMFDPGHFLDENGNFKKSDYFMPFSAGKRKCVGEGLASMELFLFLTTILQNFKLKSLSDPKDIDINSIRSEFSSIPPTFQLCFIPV
# UniProt P60484: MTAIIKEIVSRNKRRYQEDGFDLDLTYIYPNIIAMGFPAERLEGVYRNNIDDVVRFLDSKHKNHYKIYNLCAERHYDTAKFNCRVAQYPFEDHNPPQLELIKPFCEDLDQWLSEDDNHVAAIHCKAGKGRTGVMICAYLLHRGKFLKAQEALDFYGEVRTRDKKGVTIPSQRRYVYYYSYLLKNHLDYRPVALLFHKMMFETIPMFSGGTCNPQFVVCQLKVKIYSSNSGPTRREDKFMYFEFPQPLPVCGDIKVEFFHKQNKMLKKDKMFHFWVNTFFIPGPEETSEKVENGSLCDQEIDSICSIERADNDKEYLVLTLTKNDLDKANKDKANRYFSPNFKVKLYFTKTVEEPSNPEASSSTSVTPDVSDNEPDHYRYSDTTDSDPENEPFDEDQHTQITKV
# UniProt Q13131: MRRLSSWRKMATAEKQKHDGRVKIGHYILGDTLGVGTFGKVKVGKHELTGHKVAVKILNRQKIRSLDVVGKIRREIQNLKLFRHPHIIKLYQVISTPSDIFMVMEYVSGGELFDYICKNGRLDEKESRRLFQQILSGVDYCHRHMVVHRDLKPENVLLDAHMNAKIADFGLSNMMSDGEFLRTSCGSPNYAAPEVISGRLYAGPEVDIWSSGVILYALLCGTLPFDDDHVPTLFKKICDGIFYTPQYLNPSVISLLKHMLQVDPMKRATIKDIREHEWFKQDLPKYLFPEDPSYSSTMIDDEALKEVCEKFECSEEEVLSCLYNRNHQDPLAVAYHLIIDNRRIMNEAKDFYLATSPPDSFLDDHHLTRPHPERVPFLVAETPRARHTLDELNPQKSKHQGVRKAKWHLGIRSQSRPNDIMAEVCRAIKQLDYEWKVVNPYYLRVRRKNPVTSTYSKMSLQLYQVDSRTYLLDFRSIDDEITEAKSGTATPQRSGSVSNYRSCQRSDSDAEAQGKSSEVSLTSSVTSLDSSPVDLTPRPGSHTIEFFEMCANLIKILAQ
# UniProt Q02763: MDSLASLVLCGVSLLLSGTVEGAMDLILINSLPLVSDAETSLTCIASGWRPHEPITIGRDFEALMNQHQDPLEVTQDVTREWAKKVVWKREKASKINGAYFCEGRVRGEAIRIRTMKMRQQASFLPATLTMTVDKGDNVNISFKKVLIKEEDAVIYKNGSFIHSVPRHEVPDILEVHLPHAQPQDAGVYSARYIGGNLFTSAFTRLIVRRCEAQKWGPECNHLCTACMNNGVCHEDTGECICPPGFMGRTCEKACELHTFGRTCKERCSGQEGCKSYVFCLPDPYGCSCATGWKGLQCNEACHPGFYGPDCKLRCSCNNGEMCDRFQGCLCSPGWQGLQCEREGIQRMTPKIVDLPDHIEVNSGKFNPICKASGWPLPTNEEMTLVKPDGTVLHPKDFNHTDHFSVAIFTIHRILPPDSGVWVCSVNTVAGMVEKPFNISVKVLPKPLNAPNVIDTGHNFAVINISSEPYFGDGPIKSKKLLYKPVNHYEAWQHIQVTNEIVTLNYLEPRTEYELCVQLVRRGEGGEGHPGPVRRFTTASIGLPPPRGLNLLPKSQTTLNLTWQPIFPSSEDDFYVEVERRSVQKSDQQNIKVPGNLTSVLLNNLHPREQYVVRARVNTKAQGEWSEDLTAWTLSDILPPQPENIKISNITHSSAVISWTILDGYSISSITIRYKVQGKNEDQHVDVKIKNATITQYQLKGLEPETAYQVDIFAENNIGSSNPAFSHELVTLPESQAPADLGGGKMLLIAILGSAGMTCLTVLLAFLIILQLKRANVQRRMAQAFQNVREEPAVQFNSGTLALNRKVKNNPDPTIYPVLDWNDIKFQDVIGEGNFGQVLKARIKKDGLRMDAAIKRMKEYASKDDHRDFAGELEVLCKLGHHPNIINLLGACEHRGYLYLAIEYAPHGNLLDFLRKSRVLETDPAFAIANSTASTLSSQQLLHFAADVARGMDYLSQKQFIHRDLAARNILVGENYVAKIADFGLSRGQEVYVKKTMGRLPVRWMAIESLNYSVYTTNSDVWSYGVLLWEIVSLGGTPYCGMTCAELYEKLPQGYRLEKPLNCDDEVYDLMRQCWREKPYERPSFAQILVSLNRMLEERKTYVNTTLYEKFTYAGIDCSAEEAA
# UniProt P22303: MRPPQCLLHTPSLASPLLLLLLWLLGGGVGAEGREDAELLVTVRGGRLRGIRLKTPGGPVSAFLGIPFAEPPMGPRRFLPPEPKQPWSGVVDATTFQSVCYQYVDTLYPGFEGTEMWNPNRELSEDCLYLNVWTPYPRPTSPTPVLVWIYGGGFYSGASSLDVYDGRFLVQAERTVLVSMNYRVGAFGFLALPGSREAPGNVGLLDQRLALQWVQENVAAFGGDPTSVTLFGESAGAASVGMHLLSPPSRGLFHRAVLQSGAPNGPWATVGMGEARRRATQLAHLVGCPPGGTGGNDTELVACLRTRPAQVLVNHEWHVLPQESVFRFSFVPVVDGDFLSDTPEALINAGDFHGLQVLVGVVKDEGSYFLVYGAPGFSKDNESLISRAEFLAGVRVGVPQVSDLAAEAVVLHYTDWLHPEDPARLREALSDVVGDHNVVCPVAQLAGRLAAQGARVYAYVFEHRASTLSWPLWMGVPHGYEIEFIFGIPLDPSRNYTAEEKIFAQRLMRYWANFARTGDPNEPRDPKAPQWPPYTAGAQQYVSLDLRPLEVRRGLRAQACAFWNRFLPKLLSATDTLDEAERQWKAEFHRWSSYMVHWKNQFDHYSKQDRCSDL
# UniProt P29466: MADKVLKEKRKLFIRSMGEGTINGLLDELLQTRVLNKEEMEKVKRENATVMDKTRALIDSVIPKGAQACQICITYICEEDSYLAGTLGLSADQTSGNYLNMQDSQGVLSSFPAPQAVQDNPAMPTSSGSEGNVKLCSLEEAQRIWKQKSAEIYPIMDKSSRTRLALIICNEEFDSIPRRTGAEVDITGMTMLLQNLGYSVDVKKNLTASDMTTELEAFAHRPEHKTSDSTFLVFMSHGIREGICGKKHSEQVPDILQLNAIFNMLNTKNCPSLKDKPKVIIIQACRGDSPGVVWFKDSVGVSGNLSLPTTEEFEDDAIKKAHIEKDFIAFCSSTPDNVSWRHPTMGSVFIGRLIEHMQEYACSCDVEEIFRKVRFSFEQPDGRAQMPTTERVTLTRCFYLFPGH
# UniProt P42575: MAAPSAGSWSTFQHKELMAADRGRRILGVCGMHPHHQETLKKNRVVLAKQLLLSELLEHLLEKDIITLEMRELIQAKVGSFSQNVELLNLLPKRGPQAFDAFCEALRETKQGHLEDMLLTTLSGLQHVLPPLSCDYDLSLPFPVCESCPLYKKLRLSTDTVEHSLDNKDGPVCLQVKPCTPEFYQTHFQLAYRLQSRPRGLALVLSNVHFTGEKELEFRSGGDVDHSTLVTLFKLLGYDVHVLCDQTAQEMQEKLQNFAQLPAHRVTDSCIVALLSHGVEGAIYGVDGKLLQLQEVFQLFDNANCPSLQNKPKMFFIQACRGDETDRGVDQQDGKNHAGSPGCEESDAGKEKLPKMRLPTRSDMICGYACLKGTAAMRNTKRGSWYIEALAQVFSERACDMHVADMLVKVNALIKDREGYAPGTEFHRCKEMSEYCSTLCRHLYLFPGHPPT
# UniProt O15111: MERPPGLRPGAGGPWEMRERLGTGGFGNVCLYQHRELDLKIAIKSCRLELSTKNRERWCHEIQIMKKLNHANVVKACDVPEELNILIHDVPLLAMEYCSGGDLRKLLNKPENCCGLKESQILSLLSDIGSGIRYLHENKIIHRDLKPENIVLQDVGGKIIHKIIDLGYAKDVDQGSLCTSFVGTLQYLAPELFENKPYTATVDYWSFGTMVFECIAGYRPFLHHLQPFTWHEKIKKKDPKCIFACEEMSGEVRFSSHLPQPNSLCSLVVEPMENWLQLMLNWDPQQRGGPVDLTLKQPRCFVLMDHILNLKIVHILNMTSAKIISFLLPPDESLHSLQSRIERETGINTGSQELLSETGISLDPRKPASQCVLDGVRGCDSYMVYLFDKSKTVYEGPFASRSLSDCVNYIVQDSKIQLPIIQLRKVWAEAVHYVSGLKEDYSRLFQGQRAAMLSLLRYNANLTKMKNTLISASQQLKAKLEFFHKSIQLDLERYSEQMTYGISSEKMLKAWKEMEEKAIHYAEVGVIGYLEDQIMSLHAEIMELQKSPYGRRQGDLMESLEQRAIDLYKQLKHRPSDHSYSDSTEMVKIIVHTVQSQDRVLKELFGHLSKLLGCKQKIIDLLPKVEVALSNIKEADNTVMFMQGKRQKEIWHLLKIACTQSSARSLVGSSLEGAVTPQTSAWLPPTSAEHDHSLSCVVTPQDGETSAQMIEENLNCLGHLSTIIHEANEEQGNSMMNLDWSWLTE
# UniProt P17706: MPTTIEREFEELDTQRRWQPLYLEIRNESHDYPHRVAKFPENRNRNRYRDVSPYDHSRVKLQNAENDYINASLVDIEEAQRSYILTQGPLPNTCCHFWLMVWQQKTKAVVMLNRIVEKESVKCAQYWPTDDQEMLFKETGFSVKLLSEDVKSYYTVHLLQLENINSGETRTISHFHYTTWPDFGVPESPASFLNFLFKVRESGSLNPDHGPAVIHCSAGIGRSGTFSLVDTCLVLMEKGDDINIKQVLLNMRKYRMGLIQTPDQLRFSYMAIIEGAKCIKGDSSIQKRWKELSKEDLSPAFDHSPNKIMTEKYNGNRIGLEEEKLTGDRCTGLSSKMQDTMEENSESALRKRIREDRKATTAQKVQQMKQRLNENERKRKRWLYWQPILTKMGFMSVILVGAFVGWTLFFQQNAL
# UniProt P19643, whole entry, looked up: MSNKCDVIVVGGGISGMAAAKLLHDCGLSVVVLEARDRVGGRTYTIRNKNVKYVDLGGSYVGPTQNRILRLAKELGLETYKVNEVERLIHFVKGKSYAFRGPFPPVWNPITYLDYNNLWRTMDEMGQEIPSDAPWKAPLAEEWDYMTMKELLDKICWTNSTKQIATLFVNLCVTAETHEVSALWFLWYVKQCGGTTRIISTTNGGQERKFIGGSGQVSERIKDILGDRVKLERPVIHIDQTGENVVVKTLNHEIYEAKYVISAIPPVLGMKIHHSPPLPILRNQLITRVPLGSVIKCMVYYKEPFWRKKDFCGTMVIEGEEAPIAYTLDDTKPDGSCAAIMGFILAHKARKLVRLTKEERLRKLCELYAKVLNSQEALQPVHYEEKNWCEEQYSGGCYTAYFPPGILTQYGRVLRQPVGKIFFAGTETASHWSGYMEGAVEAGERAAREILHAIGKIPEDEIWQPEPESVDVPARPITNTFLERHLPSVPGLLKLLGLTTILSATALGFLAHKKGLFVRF
# UniProt P20789, whole entry, looked up: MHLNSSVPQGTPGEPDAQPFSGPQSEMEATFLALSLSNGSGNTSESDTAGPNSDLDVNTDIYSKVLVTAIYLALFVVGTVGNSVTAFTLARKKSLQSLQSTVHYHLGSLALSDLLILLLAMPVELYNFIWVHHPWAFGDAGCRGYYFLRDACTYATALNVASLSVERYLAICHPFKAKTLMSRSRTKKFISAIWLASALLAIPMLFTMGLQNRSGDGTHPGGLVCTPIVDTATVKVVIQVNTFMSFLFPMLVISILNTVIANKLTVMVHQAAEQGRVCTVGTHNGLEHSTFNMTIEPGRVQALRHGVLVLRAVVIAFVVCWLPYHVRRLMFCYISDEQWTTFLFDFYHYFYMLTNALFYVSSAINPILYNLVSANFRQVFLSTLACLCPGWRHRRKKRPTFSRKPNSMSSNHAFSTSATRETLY
# UniProt P70536: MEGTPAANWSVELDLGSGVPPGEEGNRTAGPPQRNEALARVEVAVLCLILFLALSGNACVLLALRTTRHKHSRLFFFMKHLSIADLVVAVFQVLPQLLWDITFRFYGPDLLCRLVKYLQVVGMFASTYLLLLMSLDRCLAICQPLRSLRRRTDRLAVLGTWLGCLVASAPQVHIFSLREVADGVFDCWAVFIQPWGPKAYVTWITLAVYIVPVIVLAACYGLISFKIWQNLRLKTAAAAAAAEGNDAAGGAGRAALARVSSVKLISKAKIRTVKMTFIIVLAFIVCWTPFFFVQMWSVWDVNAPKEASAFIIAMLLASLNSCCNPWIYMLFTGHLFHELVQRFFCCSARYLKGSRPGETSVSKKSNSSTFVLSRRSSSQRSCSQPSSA
# Where “and” joins values, the source holds several entries; their conditions need not be identical. Equal values may be shown once. This list was built around the results that the source calls inconclusive (neither active nor inactive); the mix of calls is not that of the screen. For some assays here: Where the call is inconclusive, the potency comes from a doubtful curve fit. The source holds several records for some structures; these can differ, active in one and inactive in another. Calls of active or inactive are those of the source. How the source made its calls: active means hit-call score of the fitted dose curve at least 0.9, where 1 is the maximum; inconclusive means response in the unintended direction; inactive means score below 0.9.
# Tests used:
# [1] = target: human CYP4F12, CYP4F12 (gene 66002) (UniProt Q9HCS2); test: NVS_ADME_hCYP4F12: NovaScreen (NVS) CYP450-related Enzyme Activity (ADME) Assay for human CYP4F12 (AID 2283111)
# Summary of the method: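 Cell-free fluorescence assay of recombinant human CYP4F12 activity on a specific substrate, read 0.5 h after dosing. Primary screen in duplicate at 10 uM, then concentration series for actives; loss of signal fitted against acetonitrile negative control.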
# [2] = target: rat CYP2C12, Cyp2c12 (gene 25011) (UniProt P11510); test: NVS_ADME_rCYP2C12: NovaScreen (NVS) CYP450-related Enzyme Activity (ADME) Assay for rat CYP2C12 (AID 2283119)
# Summary of the method: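 Cell-free recombinant rat CYP2C12 activity read by fluorescence 0.5 h after dosing; loss of signal versus acetonitrile control. Primary screen in duplicate at 10 uM; actives then run in concentration-response format.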
# [3] = target: human Epidermal Growth Factor Receptor (EGFR), EGFR (gene 1956) (UniProt P00533); test: NVS_ENZ_hEGFR: NovaScreen (NVS) Enzymatic Assay for human Epidermal Growth Factor Receptor (EGFR) (AID 2283151)
# Summary of the method: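 Cell-free kinase assay, fluorescence plus electrophoretic mobility shift separating substrate and product, read 1 hour after dosing; loss of signal vs DMSO. Duplicate screen at 25 uM, then concentration-response to 50 uM.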
# [4] = target: human Phosphatase and Tensin Homolog (PTEN), PTEN (gene 5728) (UniProt P60484); test: NVS_ENZ_hPTEN: NovaScreen (NVS) Enzymatic Assay for human Phosphatase and Tensin Homolog (PTEN) (AID 2283203)
# Summary of the method: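 Cell-free recombinant human PTEN with fluorescent substrate; product separated by electrophoretic mobility shift and read by fluorescence 1 h after dosing. Primary screen in duplicate at 25 uM, actives followed in concentration series versus DMSO.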
# [5] = target: human AMP-activated Protein Kinase, alpha 1 (AMPKa1), PRKAA1 (gene 5562) (UniProt Q13131); test: NVS_ENZ_hAMPKa1: NovaScreen (NVS) Enzymatic Assay for human AMP-activated Protein Kinase, alpha 1 (AMPKa1) (AID 2283130)
# Summary of the method: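 Recombinant human AMPKα1 activity was measured cell-free by fluorescent substrate conversion with electrophoretic mobility-shift separation, 1 h after dosing. Duplicate single-point screening was at 25 uM; actives (≥30% inhibition) were retested in concentration-response up to 50 uM.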
# [6] = target: rat Acetylcholinesterase (AChE), Ache (gene 83817) (UniProt P37136); test: NVS_ENZ_rAChE: NovaScreen (NVS) Enzymatic Assay for rat Acetylcholinesterase (AChE) (AID 2283233)
# Summary of the method: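 Rat brain membrane acetylcholinesterase activity measured colorimetrically 0.33 h after compound addition, loss of signal relative to DMSO. Primary screen in duplicate at 25 uM; actives re-run as concentration-response with 50 uM top concentration.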
# [7] = target: human Tyrosine Protein Kinase Receptor Tie-2 (Tie2), TEK (gene 7010) (UniProt Q02763); test: NVS_ENZ_hTie2: NovaScreen (NVS) Enzymatic Assay for human Tyrosine Protein Kinase Receptor Tie-2 (Tie2) (AID 2283225)
# Summary of the method: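 Recombinant human Tie2 kinase activity was read cell-free by fluorescence with electrophoretic mobility shift, 1 hour after dosing. The screen used 25 uM in duplicate, then concentration-response up to 50 uM. Signal loss was scored against DMSO.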
# [8] = target: human Acetylcholinesterase (AChE), ACHE (gene 43) (UniProt P22303); test: NVS_ENZ_hAChE: NovaScreen (NVS) Enzymatic Assay for human Acetylcholinesterase (AChE) (AID 2283129)
# Summary of the method: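 Cell-free colorimetric enzyme-activity assay; compounds read 0.33 hour after dosing, loss of signal vs DMSO baseline. Primary screen in duplicate at 25 uM single concentration, with active compounds retested in concentration series.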
# Caspase-1 (Homo sapiens) = Caspase-1 (Homo sapiens) (UniProt P29466); test: NVS_ENZ_hCASP1: NovaScreen (NVS) Enzymatic Assay for human Caspase 1 (CASP1) (AID 2283132)
# Summary of the method: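 Cell-free enzymatic assay with E. coli-expressed recombinant protein; fluorescence intensity read 1 hour after dosing. Single-concentration duplicate screen at 25 uM, then concentration-response up to 50 uM; activity fitted relative to DMSO, loss of signal meaning inhibition.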
# [9] = target: human Caspase 2 (CASP2), CASP2 (gene 835) (UniProt P42575); test: NVS_ENZ_hCASP2: NovaScreen (NVS) Enzymatic Assay for human Caspase 2 (CASP2) (AID 2283135)
# Summary of the method: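 E. coli-expressed enzyme in a cell-free protease assay, fluorescence read 1 h after dosing. Compounds at 25 uM in duplicate, with concentration-response up to 50 uM for hits; loss of signal against DMSO baseline.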
# [10] = target: human Ephrin type-A Receptor 2 (EphA2), EPHA2 (gene 1969) (UniProt P29317); test: NVS_ENZ_hEphA2: NovaScreen (NVS) Enzymatic Assay for human Ephrin type-A Receptor 2 (EphA2) (AID 2283155)
# Summary of the method: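 Cell-free recombinant EphA2 kinase with specific substrate, 1 h, fluorescence with electrophoretic mobility-shift separation of substrate and product. Primary screen at 25 uM in duplicate; hits retested in singleton concentration-response up to 50 uM, referenced to DMSO.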
# [11] = target: human IkappaB Kinase alpha (IKKa), CHUK (gene 1147) (UniProt O15111); test: NVS_ENZ_hIKKa: NovaScreen (NVS) Enzymatic Assay for human IkappaB Kinase alpha (IKKa) (AID 2283167)
# Summary of the method: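 Cell-free recombinant human IKKa with fluorescent substrate, product separated by electrophoretic mobility shift; read 1 hour after dosing. Primary screen duplicate at 25 uM, actives then concentration-response up to 50 uM; loss of signal relative to DMSO.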
# [12] = target: human Protein Tyrosine Phosphatase Non-receptor Type 2 (PTPN2), PTPN2 (gene 5771) (UniProt P17706); test: NVS_ENZ_hPTPN2: NovaScreen (NVS) Enzymatic Assay for human Protein Tyrosine Phosphatase Non-receptor Type 2 (PTPN2) (AID 2283207)
# Summary of the method: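 Cell-free recombinant enzyme with fluorescent substrate, product separated by electrophoretic mobility shift; read 1 h after dosing. Primary screen single concentration (25 uM) in duplicate; actives followed in concentration series; loss of signal versus DMSO.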
# [13] = target: rat Monoamine Oxidase, MAO-B, Peripheral (MAOBP), Maob (gene 25750) (UniProt P19643); test: NVS_ENZ_rMAOBP: NovaScreen (NVS) Enzymatic Assay for rat Monoamine Oxidase, MAO-B, Peripheral (MAOBP) (AID 2283242)
# [14] = target: rat Corticotropin Releasing Factor Receptor (CRF), Crhr1 (gene 58959) (UniProt P35353); test: NVS_GPCR_rCRF: NovaScreen (NVS) G Protein-Coupled Receptor Assay for rat Corticotropin Releasing Factor Receptor (CRF) (AID 2283300)
# Summary of the method: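 Rat cortical membranes used as receptor source in a radioligand competitive displacement binding assay; scintillation read 2 h after dosing. Primary screen run in duplicate at 25 uM; loss of signal versus DMSO baseline indicates binding.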
# [15] = target: rat Neurotensin Receptor (NTS), Ntsr1 (gene 366274) (UniProt P20789); test: NVS_GPCR_rNTS: NovaScreen (NVS) G Protein-Coupled Receptor Assay for rat Neurotensin Receptor (NTS) (AID 2283308)
# Summary of the method: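 Rat forebrain membranes; radioligand binding with competitive displacement, read by filter-based scintillation counting 1 h after dosing. Primary screen in duplicate at 25 uM; actives (e.g., 30% inhibition) rerun in concentration-response up to 50 uM, loss-of-signal versus DMSO.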
# [16] = target: rat Oxytocin Receptor (OXT), Oxtr (gene 25342) (UniProt P70536); test: NVS_GPCR_rOXT: NovaScreen (NVS) G Protein-Coupled Receptor Assay for rat Oxytocin Receptor (OXT) (AID 2283330)
# Summary of the method: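 Radioligand displacement on rat uterine membranes, 1 h incubation, filter-based scintillation counting. Chemicals were screened in duplicate at 25 uM, and those passing threshold were retested in concentration-response up to 50 uM. Loss of binding was fitted versus DMSO.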
structure (smiles),measurement,setting,value
C[C@]12CC[C@@H]3c4ccc(O)cc4CC[C@H]3[C@@H]1CC[C@@H]2O,outcome,[1],inactive
same,outcome,[2],inactive
O=c1n(CC2CO2)c(=O)n(CC2CO2)c(=O)n1CC1CO1 (stereo not drawn),AC50,[1],inconclusive: 2.59 µM
CN(C)c1ccc(N=NS(=O)(=O)O)cc1,AC50,[1],inconclusive: 0.543 µM
same,AC50,[3],inconclusive: 23.8 µM
same,outcome,[4],inactive
CC(C)=CCC/C(C)=C\CO,AC50,[5],inconclusive: 25 µM
same,outcome,[6],inactive
CCCCOC(=O)CCCCC(=O)OCCCC,AC50,[5],inconclusive: 25 µM
same,outcome,[7],inactive
COc1ccc(-n2nc(C(F)F)cc2-c2ccc(S(C)=O)cc2)cc1 (stereo not drawn),outcome,[8],inactive
S=C(S)NCCNC(=S)S.[Mn+2].[S-]C([S-])=NCCN=C([S-])[S-].[Zn+2],AC50,Caspase-1 (Homo sapiens),inconclusive: 953 nM and inconclusive: 188 nM and inconclusive: 224 nM
same,AC50,[9],inconclusive: 19.9 µM and inconclusive: 15.5 µM
same,AC50,[3],active: 9.13 µM and active: 9.55 µM and active: 21.4 µM
same,AC50,[10],inconclusive: 3.23 µM and inconclusive: 12.5 µM and inconclusive: 9.48 µM
same,AC50,[11],active: 18.2 µM
same,AC50,[4],active: 3.14 µM and active: 80.5 nM and active: 274 nM
same,AC50,[12],active: 898 nM and active: 519 nM
same,AC50,[7],active: 9.01 µM and active: 2.11 µM and active: 12.8 µM
same,AC50,[13],inconclusive: 0.0713 µM
same,AC50,[14],active: 25 µM
same,AC50,[15],inconclusive: 25 µM
same,AC50,[16],inconclusive: 771 nM and inconclusive: 1.29 µM

# Reprinted at random: 2 entries already listed
structure (smiles),measurement,setting,value
CCCCOC(=O)CCCCC(=O)OCCCC,AC50,[5],inconclusive: 25 µM
S=C(S)NCCNC(=S)S.[Mn+2].[S-]C([S-])=NCCN=C([S-])[S-].[Zn+2],AC50,[13],inconclusive: 0.0713 µM
